Test results reported in the supplement of paper PMC12067093, “Discovery and optimisation of a covalent ligand for TRIM25 and its application to targeted protein ubiquitination” (Chemical Science, 2025).
The other results are listed elsewhere or left out.

Compound: Cc1cc(ccc1-c1ccccc1)C(=O)N1CCCN(CC1)C(=O)CCl [compound 10]
Assay: probe-labelled cysteine peptide fold change vs DMSO (competition) (log2 fold change); higher = less target engagement (more negative = stronger competition)
Settings: THP-1, incubation time: 4 h
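Further: competitive profiling in live THP-1 cells: cysteine peptides tagged with an iodoacetamide desthiobiotin (IA-DTB) probe, intensity after compound treatment relative to DMSO-treated cells.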

| Target | probe-labelled cysteine peptide fold change (10 µM) | probe-labelled cysteine peptide fold change (50 µM) |
| --- | --- | --- |
| RAD21_O60216_585_TGAESISLLELCR (UniProt O60216) | 0.182 | 0.331 |
| UniProt Q6ZSR9_Q6ZSR9_251_GSCLESGGHSNDR | -0.161 | -0.623 |
| RABGAP1_Q9Y3P9_941_QICSQLSER (UniProt Q9Y3P9) | -0.145 | 0.0919 |
| RAB43_Q86YS6_157_EVSLAEAQSLAEHYDILCAIETSAK (UniProt Q86YS6) | 0.0749 | 0.197 |
| RABL6_Q3YEC7_140_NCNGVVMMFDITK (UniProt Q3YEC7) | 0.055 | 0.0746 |
| QARS_P47897_111_SHPLDPIDTVDFERECGVGVIVTPEQIEEAVEAAINR (UniProt P47897) | -0.047 | 0.015 |
| PYCR3_Q53H96_129_VLPNLPCVVQEGAIVMAR (UniProt Q53H96) | 0.217 | 0.181 |
| RAB43_Q86YS6_157_SDLSELREVSLAEAQSLAEHYDILCAIETSAK (UniProt Q86YS6) | -0.188 | -0.247 |
| QSOX2_Q6ZRP7_131_NQAVCHDYDIHFYPTFR (UniProt Q6ZRP7) | -0.168 | -0.13 |
| RABL3_Q5HYI8_180_TAFLAEDFNPEEINLDCTNPR (UniProt Q5HYI8) | -0.255 | 0.0436 |
| RAB23_Q9ULC3_130_IDLLDDSCIK (UniProt Q9ULC3) | -0.135 | 0.536 |
| RAD1_O60671_215_DSDLMEAFHCNQTQVNR (UniProt O60671) | 0.107 | 0.108 |
| QARS_P47897_433_WCIYPTYDYTHCLCDSIEHITHSLCTK (UniProt P47897) | 0.168 | -0.0824 |
| RABGAP1L_Q5R372_330_CFGMLLSPGR (UniProt Q5R372) | 0.134 | 0.22 |
| QSOX1_O00391_110_AWRPALYLAALDCAEETNSAVCR (UniProt O00391) | -0.147 | -0.174 |
| QSOX1_O00391_449_GYVHYFFGCR (UniProt O00391) | 0.109 | 0.232 |
| RAB24_Q969Q5_87_AAIVCYDLTDSSSFER (UniProt Q969Q5) | 0.23 | 0.129 |
| PYURF_Q96I23_60_KTEEPPRDFDPALLEFLVCPLSK (UniProt Q96I23) | 0.0128 | -0.357 |
| PYCR1_P32322_262_SLLINAVEASCIR (UniProt P32322) | 0.0279 | 0.0718 |
| PXN_P49023_384+387_TWHPEHFVCTHCQEEIGSR (UniProt P49023) | 0.402 | -0.119 |
| PWWP2A_Q96N64_233_CEANGAVPDDPSPVPHPELSLAESLWTSKPPPLFHEGAPYPPPLFIR (UniProt Q96N64) | -0.0763 | -0.294 |
